According to US20150376294A1 (RIGSHOSPITALET, published 2015):
Results are given in words; binding and its absence hold for the method and conditions named. Some binding calls cover weakened binding; strength is not graded here.

Sequences of proteins named here, by UniProt entry; tags and fusion partners are left off. A change or cut given only in a name is not applied to a line headed by its entry.
UniProt Q9Y2J8: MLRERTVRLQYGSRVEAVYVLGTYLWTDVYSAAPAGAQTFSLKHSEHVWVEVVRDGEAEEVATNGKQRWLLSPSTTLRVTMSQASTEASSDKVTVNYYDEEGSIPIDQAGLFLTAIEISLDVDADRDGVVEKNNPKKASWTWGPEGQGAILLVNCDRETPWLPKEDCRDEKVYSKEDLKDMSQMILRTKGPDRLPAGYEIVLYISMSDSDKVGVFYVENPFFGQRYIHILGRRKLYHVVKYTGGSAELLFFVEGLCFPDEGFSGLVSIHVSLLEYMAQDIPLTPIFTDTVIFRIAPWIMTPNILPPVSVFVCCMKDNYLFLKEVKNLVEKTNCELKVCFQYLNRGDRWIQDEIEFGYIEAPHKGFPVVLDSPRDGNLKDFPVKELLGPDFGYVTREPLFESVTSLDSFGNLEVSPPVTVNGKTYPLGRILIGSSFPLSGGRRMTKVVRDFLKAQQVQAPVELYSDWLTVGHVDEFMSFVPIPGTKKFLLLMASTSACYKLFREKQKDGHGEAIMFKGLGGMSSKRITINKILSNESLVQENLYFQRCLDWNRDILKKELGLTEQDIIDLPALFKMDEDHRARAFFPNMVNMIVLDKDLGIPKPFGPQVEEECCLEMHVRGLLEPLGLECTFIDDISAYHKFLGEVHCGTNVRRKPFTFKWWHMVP

Target: 1385-463 (whole length human PAD2 without the catalytic site) (human) (UniProt Q9Y2J8)
Experiment: western blotting

B1: mAb #2 (antibody, V domains shown)
VH: QVQLQQPGAELVRPGASVKLSCKASGYTFTSYWMNWVKQRPGQGLEWIGMIDPSDSESYYNQMFKDKATLTVDKSSSTAYMQLSRLTSEDSAVYYCARKDYYAYGGAMDYWGQGTSVTVSS
VL: QIVLTQSPAILSASLGEEITLTCSANSSARYMHWYQQKSGTSPKLLIYSTSNLASGVPSRFSGSGSGTFYSLTLSSVEAEDAADYYCHQWSGYPTFGGGTKLEIKR
notes: Mouse IgG monoclonal antibody, unknown subtype; raised against rabbit PAD2
binding: binds
